Our source for the binding values is patent US20220409751A1 (NORTHSTAR MEDICAL TECHNOLOGIES, published 2022).

Protein sequences, listed by entry. Tags and fused reporters are not part of them. Residues count along the entry.
UniProt Q03405, residues 23-305: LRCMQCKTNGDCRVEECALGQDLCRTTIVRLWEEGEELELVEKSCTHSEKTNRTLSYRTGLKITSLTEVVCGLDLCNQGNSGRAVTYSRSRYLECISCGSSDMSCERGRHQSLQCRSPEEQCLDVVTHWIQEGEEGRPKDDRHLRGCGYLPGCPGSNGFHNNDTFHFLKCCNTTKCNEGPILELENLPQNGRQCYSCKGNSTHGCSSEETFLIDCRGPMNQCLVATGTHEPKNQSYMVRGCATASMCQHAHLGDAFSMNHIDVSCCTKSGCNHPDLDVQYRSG

B1: HE ™ ATN-1 (antibody, IgG1, V domains shown)
VH: EVQLVQSGPEVVKTGASVKISCKASGYSFTSYYMHWVKQAHGQGLEWIGEINPYNGGASYNQKIKGRATFTVDTSTRTAYMEFSSLRSEDTAVYYCARSIYGHSVLDYWGQGTLVTVSS
VL: DVVMTQSPLSLSVTIGEPASISCRSSQSLLDSDGKTYLNWLLQKPGQSPKRLIYLVSKRDSGVPDRFSGSGSGTDFTLKISRVEAEDVGVYYCWQGTHFPLTFGQGTKLEIK
notes: V regions cloned into transient expression vectors with human gamma-1 and kappa constant region modules (IgG1, kappa); made in HEK293E cells
B2: HE ™ ATN-4 (renamed MNPR-101) (antibody, human IgG1, kappa, V domains shown)
VH: EVQLVQSGPEVKKTGASVKISCKASGYSFTSYYMHWVRQAHGQGLEWIGEINPYNGGASYNQKIQGRATFTVDTSTSTAYMEFSSLRSEDTAVYYCARSIYGHSVLDYWGQGTLVTVSS
VL: DVVMTQSPLSLSVTIGEPASISCRSSQSLLDSDGKTYLNWLLQKPGQSPQRLIYLVSKRDSGVPDRFSGSGSGTDFTLKISRVEAEDVGVYYCWQGTHFPLTFGQGTKLEIKR
notes: IgG1 kappa; In the Biacore assay the transiently expressed (HEK293E), unconjugated antibody was used; also called mAb MNPR-101; humanized mAb MNPR-101
B3: HE ™ ATN-3 (antibody, IgG1, V domains shown)
VH: EVQLVQSGPEVKKTGASVKISCKASGYSFTSYYMHWVRQAHGQGLEWIGEINPYNGGASYNQKIQGRATFTVDTSTSTAYMEFSSLRSEDTAVYYCARSIYGHSVLDYWGQGTLVTVSS
VL: DVVMTQSPLSLSVTIGEPASISCRSSQSLLDSDGKTYLNWLLQKPGQSPKRLIYLVSKRDSGVPDRFSGSGSGTDFTLKISRVEAEDVGVYYCWQGTHFPLTFGQGTKLEIK
notes: Human gamma-1 and kappa constant region modules (IgG1, kappa); made in HEK293E cells
B4: HE ™ ATN-2 (antibody, IgG1, V domains shown)
VH: EVQLVQSGPEVVKTGASVKISCKASGYSFTSYYMHWVKQAHGQGLEWIGEINPYNGGASYNQKIKGRATFTVDTSTRTAYMEFSSLRSEDTAVYYCARSIYGHSVLDYWGQGTLVTVSS
VL: DVVMTQSPLSLSVTIGEPASISCRSSQSLLDSDGKTYLNWLLQKPGQSPQRLIYLVSKRDSGVPDRFSGSGSGTDFTLKISRVEAEDVGVYYCWQGTHFPLTFGQGTKLEIK
notes: as for B3

These are yes or no findings as the source states them, for the method shown. Some entries that bind do so weakly or less than the wild type.

For this assay, the target named is soluble uPAR (suPAR) (UniProt Q03405). Put plainly: SPR (Biacore 2000), capture format.
With B1, the binding result is “binds”. As to B2, the binding result is reported as “binds”. With B3 the entry was “binds”; with B4, “binds”.
